Among the data in article PMC9605866, “Structures of the TMC-1 complex illuminate mechanosensory transduction” (Nature, 2022) are binding values, retold here.

No constants are given. Whether binding was seen depends on the method and setting. Binding seen in cells or lysates may run through a third protein. A yes stands for co-enrichment or nearness to the bait. Other partners may have been found. Where a sequence is shown, tags or fusion partners need not be part of it.

In the experiment the target is T1, transmembrane channel-like protein 1 (TMC-1) with C-terminal mVenus and 3×Flag tag, from tmc-1::mVenus knock-in worms (C. elegans) (UniProt D3KZG3).
T1 sequence: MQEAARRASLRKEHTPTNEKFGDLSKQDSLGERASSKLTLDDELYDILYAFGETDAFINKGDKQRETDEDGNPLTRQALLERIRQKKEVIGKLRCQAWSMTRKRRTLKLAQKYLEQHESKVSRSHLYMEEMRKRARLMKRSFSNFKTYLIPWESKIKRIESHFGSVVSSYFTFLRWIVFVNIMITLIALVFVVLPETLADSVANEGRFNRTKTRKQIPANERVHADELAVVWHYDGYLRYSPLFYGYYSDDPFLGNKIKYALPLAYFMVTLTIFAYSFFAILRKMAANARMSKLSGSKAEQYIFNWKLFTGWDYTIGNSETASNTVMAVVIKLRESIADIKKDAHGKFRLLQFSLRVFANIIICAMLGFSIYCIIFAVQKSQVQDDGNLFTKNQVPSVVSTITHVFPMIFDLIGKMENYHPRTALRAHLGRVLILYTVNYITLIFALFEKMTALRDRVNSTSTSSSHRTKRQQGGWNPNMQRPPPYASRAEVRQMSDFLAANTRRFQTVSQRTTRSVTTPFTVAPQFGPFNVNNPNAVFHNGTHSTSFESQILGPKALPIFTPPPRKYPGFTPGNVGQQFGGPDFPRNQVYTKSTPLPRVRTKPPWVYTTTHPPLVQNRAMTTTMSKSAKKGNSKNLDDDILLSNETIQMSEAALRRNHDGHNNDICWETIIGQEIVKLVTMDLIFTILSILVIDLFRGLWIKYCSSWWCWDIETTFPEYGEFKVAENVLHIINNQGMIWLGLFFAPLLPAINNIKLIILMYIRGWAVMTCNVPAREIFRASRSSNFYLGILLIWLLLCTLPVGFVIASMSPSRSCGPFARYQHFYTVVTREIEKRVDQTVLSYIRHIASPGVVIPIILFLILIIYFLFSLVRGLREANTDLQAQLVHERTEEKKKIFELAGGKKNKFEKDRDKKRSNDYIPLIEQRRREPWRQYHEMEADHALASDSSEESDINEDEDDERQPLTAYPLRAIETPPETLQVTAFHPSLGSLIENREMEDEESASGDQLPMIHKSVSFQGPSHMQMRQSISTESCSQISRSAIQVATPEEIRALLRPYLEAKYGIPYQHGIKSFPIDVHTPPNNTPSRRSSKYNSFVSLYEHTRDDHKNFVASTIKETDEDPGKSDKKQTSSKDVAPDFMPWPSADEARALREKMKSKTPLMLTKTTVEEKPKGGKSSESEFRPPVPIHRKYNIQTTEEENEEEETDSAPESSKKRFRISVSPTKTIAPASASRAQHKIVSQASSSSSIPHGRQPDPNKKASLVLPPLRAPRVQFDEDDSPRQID
Description: affinity purification with mass spectrometry; TMC-1-mVenus-3×Flag complex from GDN-solubilised tmc-1::mVenus worms bound to anti-Flag M2 resin, eluted with 3C protease, SEC peak pooled, digested and analysed by LC-MS/MS; control sample from wild-type N2 worms.

On to “arrestin domain protein ARRD-6 (C. elegans (endogenous in worms))”, for which the binding entry is listed as “binds”.
